This passage reports binding results from article PMC8825819, “Structure of Escherichia coli O157:H7 bacteriophage CBA120 tailspike protein 4 baseplate anchor and tailspike assembly domains (TSP4-N)” (Scientific Reports, 2022).

This assay deals with TSP4 devoid of the AD-XD1 domains, residues 185-1036 (bacteriophage CBA120). The assay can be described thus: AUC; sedimentation velocity of single proteins and of mixtures, PBS pH 7.4, 20 °C, absorbance at 280 nm, 30-50 krpm; c(s) by SEDFIT; Kd and koff by Lamm equation modelling with a two-site heterogeneous association model A + B + B = AB + B = ABB (A: TSP4-N335 hexamer, B: partner TSP trimer; two symmetric sites, no cooperativity); both purified.

Results are given in words; binding and its absence hold for the method and conditions named.

B1: Tailspike protein 2 of bacteriophage CBA120 (natural protein, UniProt G3M190 1-921, looked up)
chain: MTRNVEELFGGVITAPHQIPFTYKSNVGGETFLSLPFYPVTGVVTINGGMQVPLDNFEIEGNTLNLGRALSKGDVVYCLFDKILSPEDTAKGIRIYKFQAVGGETEFTPDFTSYGVQSLYIGGEYKTPEIEYSYDSTTGKVSLQTALSAGVWVVAEMSVKQPNISPAFDRSIQEIARSANVKDSEVIVSTDTISLLDGKKVVYDIATQTSYGLPTIPDGSVISSVSAGKLNYNPGDVQVDLLPLEDSFINVINTLGRNDGAKYIGECHSVADLRNTEPTMDGQRIILKQHTAGTLLGGGVFRALIDGTGKTDNNGTVIKTVGGAAWLRVNADRVNPFMFGALGGSNDDTIPVQSCVDSGKATQLTDAHYVSNIQLKYNTSSIYGSGLHYSRLHQLPSATGNCITIKDTCSLIVLDAFGVYGTGAQQGTSFTAGTTGIYVETPSGLSADYPFHTTADPRRDLCISKVHIAGFDEYGLNIDSGNFSVTTDSLLVNHINQVGVRCATTDWTWTNIQVNTCGKQCLVLDGCGNGRIIGGKFIWANWQPYGTVGQFPGITINNSQNMVINGIEVQDCGGNGIEISESYSISMNGLNTNRNGINANNTFYNIVFNKSDAVINGFVGLNYAANSGSGANSSAGNFQFLSNDCSVTINGVVETGYMGINFIGDNNIINPTNSDLSINGLVNYSKTGLQTMNETPTFDGVSTTPVYVSVPSSVGQVNGLRLSQANKDKLLYSRTAGPEGITMAAVIVPTISGAEVFNFMAIGSGFSDTSNSLHLQLVIDASGKQTIALLLGGDGTTQILSGDLPNDLKLQSGVPYHIAIGAKPGYFWWSILNIQTGKRIRRSFRGAYLAVPFNSIFGLTSSLTFFSDSNAGGDACSGVGAKVYVGMFSSENDYVASRYYNLINPVDPTKLISYRILDSSI
notes: Homotrimer by SV (MWcalc of the trimer 297 kDa); also called TSP2
For the molecule B1, the binding entry is “no binding”.
